Measurements taken from patent US20150125450A1 (published 2015).
These are yes or no findings as the source states them, for the method shown. Some entries that bind do so weakly or less than the wild type.

Chains of the proteins cited; added tags and fusions are not shown. Residues count along the entry.
UniProt P51742, residues 77-233: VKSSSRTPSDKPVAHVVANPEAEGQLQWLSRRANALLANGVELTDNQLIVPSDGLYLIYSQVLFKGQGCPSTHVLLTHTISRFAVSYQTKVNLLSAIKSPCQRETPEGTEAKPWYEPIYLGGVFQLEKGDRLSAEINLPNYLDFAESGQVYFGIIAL
UniProt P01375, residues 77-233: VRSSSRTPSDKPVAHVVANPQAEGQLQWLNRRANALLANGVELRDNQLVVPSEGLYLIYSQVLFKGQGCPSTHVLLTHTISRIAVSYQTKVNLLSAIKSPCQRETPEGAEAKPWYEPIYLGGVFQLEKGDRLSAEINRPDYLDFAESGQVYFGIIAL

Columns and labels:
canine TNF-α (canine) = canine TNF-α (canine) (UniProt P51742); assay: ELISA
human TNF-α = human TNF-α (human, UniProt P01375 77-233); assay: ELISA

binding (canine TNF-α (canine)): binds
binding (human TNF-α): binds
B1: chimeric 4C9 antibody (chimeric anti-TNF-α clone 6A9) (antibody, V domains shown)
VH: VQLQESGPSLVKPSQTLSLTCSVTGDSITSGFWNWIRKFPGNKFEYMGYISYSGRTYYNPSLKSRLSITRDTSKNQFYLQLNSVTAEDTATYYCARDANYVLDYWGQGTTLTVSS
VL: DIQLTQSPSSLAMSVGQKVTMNCKSSQSLLNSSTQKNYLAWFQQKPGQSPKLLVYFASARESGVPDRFIGSGSGTDFTLTISSVQAEDLADYFCQQHYRTPFTFGSGTKLEIKR
notes: also called cIgG-anti-TNF-α
